This is one part of the list.
Experiments:
Experiment in all cases: log2 fold change, soluble protein after heating vs DMSO (PISA); higher = thermal stabilisation; K562 lysate, 10 uM; active = over 0.2 and 3.5 SD of the protein, either way, in both replicates (recomputed)
[1] = compound: CC(=O)c1cnc2ccc(-c3cc(Cl)c(O)c(Cl)c3)nc2c1N[C@H]1CC[C@H](CN(C)C)CC1
Outline: (§1)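 Quantification was by TMTpro 16plex LC-MS/MS with equalised channel sums, applied to the supernatant after 21,000xg for 90 min. Samples were crude K562 extract at 1 mg/mL protein in PBS pH 7.4 with 1 mM MgCl2, treated with 10 μM compound for 30 min, heated for 3 min across 48°C-58°C, pooled and brought to 0.5% NP-40 at 4°C. Values are log-two fold changes in thermal stability relative to solvent controls, from duplicates.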

The chains behind the UniProt entries cited, without tags or fusion partners. Where a name states a change or a piece, a line headed by the entry shows the natural chain unless it says otherwise.
UniProt P59780: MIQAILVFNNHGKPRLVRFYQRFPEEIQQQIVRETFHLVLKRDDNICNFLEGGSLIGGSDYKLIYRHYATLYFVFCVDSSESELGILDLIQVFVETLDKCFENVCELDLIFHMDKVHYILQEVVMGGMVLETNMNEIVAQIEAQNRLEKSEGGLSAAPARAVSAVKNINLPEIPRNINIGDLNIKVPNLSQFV
UniProt Q53RE8: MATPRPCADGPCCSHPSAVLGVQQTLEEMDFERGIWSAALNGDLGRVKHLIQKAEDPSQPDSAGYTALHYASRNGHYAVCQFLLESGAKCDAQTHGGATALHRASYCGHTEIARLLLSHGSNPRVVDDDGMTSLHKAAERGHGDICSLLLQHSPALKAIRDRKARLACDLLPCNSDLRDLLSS
UniProt P51648: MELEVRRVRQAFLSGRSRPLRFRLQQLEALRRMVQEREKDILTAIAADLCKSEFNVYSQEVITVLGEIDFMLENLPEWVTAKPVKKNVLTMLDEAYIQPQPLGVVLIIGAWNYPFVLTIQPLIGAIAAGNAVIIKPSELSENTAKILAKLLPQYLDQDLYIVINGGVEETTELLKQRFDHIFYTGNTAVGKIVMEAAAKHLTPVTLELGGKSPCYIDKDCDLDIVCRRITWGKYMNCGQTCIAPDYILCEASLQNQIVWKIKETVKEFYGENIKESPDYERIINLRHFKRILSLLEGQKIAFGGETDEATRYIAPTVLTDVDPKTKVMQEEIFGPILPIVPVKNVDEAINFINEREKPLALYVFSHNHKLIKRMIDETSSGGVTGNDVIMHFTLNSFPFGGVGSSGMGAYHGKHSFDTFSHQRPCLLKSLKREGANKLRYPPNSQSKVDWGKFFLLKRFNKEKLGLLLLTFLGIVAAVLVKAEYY
UniProt Q13686: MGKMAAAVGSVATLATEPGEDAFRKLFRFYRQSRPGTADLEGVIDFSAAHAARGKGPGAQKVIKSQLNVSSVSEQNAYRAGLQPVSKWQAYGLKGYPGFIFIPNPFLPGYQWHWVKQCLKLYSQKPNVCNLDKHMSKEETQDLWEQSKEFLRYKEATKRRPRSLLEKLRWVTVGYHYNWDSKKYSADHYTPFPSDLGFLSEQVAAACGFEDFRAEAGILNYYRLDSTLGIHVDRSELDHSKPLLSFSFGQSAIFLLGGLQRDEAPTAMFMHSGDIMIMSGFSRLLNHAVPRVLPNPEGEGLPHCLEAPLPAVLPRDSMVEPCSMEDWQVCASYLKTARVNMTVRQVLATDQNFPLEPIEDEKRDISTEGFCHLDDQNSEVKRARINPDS
UniProt Q86SJ2: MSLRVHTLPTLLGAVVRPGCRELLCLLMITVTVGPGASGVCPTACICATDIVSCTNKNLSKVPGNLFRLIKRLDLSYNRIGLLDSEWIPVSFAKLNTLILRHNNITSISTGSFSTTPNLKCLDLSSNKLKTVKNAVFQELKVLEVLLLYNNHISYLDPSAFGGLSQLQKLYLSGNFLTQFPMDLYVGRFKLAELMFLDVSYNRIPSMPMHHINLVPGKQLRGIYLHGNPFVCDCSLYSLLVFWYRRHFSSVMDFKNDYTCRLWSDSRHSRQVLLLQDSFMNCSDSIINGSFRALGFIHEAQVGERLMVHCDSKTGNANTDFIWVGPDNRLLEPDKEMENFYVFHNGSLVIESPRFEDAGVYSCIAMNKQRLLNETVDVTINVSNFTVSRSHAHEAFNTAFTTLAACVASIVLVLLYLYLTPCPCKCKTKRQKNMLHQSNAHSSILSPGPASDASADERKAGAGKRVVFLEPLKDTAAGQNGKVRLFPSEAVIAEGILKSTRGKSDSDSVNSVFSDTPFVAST
UniProt Q96F25: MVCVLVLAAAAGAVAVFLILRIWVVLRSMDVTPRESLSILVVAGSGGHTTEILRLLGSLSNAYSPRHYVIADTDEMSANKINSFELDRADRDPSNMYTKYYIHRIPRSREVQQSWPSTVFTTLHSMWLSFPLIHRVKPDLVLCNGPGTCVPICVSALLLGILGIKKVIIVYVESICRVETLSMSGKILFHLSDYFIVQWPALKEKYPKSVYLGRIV
UniProt Q9UNK9: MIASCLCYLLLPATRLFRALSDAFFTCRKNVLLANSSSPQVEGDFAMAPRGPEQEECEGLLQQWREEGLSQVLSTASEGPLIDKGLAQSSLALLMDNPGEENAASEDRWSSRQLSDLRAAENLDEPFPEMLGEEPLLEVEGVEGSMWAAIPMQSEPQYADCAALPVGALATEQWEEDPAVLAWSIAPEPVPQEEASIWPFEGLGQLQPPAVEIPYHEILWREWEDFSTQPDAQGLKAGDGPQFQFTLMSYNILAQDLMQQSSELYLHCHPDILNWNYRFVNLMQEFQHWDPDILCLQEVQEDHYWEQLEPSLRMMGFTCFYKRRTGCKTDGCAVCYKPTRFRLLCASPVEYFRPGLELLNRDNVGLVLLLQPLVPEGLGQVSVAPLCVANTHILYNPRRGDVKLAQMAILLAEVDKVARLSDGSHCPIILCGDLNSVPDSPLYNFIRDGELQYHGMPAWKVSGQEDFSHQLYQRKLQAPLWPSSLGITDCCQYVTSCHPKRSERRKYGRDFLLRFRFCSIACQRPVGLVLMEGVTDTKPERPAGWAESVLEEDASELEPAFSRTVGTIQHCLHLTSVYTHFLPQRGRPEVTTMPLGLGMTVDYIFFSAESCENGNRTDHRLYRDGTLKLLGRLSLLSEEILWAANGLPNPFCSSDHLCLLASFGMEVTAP
UniProt P54886: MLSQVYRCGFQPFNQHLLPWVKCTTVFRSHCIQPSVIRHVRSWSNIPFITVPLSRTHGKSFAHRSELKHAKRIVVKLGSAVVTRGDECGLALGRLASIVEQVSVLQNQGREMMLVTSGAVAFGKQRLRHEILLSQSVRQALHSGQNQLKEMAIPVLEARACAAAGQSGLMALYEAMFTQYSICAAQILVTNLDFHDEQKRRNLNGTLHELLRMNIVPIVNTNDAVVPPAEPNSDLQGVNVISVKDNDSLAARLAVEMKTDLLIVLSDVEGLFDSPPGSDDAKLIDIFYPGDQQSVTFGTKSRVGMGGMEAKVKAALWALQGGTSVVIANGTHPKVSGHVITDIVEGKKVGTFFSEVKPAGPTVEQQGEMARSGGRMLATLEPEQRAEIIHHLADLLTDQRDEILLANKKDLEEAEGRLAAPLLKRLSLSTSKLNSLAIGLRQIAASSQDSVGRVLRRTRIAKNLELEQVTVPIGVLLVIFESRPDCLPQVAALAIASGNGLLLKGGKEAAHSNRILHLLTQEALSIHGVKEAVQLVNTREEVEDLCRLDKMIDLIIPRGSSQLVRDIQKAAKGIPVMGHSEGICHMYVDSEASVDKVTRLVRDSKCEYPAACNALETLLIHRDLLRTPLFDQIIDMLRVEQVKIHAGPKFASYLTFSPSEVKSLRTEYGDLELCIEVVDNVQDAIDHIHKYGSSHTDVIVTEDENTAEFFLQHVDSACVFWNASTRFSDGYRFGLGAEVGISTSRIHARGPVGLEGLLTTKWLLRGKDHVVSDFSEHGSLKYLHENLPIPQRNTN
UniProt P22557: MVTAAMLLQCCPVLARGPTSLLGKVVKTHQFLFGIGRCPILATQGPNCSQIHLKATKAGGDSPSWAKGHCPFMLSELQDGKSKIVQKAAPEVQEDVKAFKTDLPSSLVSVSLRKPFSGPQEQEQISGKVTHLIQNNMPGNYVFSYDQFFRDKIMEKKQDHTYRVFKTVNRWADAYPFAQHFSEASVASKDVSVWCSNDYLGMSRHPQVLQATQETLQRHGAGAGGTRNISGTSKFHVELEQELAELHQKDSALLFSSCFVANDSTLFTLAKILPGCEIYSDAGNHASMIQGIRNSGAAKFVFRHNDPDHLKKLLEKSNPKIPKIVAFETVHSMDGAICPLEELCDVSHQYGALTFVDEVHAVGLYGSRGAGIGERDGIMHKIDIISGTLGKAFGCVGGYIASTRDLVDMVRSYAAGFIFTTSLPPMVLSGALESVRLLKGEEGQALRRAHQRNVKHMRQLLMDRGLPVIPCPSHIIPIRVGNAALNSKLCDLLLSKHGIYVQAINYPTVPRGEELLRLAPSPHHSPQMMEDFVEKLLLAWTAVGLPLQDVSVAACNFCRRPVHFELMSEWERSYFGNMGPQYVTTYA
UniProt Q9BT30: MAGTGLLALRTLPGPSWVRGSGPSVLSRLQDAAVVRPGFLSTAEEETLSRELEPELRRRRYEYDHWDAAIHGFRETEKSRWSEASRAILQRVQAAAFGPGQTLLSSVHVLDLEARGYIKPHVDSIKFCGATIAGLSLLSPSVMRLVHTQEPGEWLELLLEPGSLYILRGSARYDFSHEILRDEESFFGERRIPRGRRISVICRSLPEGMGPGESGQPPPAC
UniProt Q6DCA0: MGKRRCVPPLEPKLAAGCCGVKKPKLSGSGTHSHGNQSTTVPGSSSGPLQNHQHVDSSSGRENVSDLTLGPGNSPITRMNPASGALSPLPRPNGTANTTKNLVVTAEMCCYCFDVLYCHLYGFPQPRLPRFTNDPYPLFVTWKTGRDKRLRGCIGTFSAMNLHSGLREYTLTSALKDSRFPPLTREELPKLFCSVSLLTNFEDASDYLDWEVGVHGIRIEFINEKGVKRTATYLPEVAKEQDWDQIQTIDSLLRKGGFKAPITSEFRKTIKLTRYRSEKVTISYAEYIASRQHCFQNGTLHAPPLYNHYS
UniProt Q9NP73: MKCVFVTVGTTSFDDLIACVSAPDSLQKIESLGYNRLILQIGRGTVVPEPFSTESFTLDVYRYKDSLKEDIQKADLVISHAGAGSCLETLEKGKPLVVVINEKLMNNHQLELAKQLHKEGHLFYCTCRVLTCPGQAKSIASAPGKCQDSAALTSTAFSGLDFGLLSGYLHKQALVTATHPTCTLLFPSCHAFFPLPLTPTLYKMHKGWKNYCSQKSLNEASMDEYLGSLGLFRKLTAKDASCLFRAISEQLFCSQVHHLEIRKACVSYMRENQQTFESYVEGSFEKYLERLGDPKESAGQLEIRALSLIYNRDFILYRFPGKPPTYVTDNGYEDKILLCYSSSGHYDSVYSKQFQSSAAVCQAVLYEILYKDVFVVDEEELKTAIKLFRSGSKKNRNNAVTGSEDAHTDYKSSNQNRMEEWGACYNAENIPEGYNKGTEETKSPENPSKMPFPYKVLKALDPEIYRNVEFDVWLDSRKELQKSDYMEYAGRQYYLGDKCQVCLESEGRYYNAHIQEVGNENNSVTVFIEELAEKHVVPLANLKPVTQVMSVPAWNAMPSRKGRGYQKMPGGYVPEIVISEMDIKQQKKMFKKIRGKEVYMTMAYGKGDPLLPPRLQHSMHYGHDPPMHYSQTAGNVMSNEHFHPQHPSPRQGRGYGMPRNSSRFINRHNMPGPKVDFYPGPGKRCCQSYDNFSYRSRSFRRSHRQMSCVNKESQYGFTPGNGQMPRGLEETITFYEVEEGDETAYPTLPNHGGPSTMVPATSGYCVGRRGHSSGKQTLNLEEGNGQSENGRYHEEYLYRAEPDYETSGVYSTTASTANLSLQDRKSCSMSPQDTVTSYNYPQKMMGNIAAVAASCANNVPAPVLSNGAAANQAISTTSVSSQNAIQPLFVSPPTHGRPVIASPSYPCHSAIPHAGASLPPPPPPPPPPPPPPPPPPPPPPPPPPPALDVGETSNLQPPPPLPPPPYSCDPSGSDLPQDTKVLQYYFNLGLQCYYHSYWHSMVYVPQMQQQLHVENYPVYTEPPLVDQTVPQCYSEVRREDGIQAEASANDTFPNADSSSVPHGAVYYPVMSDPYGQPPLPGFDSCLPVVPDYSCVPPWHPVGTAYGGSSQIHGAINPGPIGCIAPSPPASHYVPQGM
UniProt Q68DC2: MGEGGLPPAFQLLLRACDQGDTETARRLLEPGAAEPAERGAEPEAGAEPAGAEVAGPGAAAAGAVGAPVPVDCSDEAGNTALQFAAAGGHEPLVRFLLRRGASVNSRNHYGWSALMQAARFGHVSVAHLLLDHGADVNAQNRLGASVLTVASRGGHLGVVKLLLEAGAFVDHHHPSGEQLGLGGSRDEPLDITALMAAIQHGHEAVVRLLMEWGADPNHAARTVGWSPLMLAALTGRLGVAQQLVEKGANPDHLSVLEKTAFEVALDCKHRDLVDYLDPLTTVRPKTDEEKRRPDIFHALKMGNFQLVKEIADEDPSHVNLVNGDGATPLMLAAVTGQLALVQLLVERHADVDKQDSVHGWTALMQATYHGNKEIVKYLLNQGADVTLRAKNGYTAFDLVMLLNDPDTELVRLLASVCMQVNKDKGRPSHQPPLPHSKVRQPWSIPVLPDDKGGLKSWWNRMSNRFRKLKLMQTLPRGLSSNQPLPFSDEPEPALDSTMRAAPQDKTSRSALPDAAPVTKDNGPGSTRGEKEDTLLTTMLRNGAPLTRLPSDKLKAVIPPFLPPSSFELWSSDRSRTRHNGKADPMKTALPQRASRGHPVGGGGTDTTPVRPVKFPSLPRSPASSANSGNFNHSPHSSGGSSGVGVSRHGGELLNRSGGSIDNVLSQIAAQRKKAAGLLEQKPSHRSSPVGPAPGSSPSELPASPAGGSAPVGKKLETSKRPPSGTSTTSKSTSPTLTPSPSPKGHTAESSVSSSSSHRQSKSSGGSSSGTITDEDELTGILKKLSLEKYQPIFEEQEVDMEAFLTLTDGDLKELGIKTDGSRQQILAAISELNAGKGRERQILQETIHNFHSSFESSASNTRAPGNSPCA

[2] = compound: CC(C)C1=C2N=C(C=C(N2N=C1)NCC3=CC=CC=C3)NCCCCCCN
Outline: as §1

[3] = compound: CC1=C(C(CC(=O)N1)C2=CC=C(C=C2)C(F)(F)F)C(=O)NC3=C(C=C4C(=C3)C=NN4)F
Outline: as §1

[4] = compound: CC1=CC=C(C=C1)SC2=C3C=C(SC3=CN=C2)C(=O)N
Outline: as §1

[5] = compound: CCCS(=O)(=O)Nc1ccc(F)c(C(=O)c2c[nH]c3ncc(Cl)cc23)c1F
Outline: as §1

[6] = compound: CC[C@@H]1C(=O)N(C)c2cnc(Nc3ccc(C(=O)N[C@H]4CC[C@H](N5CCN(CC6CC6)CC5)CC4)cc3OC)nc2N1C(C)C [volasertib]
Outline: as §1

[7] = compound: CC1=C(C2=C(C=C1)C(=O)C3=CC=CC=C3N2CCCN)C
Outline: as §1

[8] = compound: CC1=C(C=C(C=C1)NC(=O)C2=CC(=CC=C2)C(C)(C)C#N)NC3=CC4=C(C=C3)N=CN(C4=O)C
Outline: as §1

[9] = compound: CCn1cc(-c2ccnc3[nH]c(-c4cccc(CN(C)C)c4)cc23)c(-c2ccc(NC(=O)N(C)C)cc2)n1
Outline: as §1

[10] = compound: CN1CCC(CNc2ccc3ncc(-c4cccc(OC(F)(F)F)c4)n3n2)CC1
Outline: as §1

[11] = compound: CN1CCN(CCOc2cc(OC3CCOCC3)c3c(Nc4c(Cl)ccc5c4OCO5)ncnc3c2)CC1 [saracatinib]
Outline: as §1

[12] = compound: CN1CCN(c2nc(C3=C(c4c[nH]c5ccccc45)C(=O)NC3=O)c3ccccc3n2)CC1 [sotrastaurin]
Outline: as §1

[13] = compound: CC(C)(C)Cn1c(N)nc2ccc(-c3[nH]c(C(C)(C)C)nc3-c3ccc(F)cc3)nc21 [ralimetinib]
Outline: as §1

[14] = compound: CC(C)(O)CC(=O)NCCn1ccc2ncnc(Nc3ccc(Oc4cccc(C(F)(F)F)c4)c(Cl)c3)c21
Outline: as §1

[15] = compound: CC1=C(C=C(C=C1)NC(=O)C2=CC(=CC=C2)N(C)C)NC(=O)C3=CC=C(C=C3)O
Outline: as §1

[16] = compound: CCn1c(C(=O)N(C2CC2)C2CC2)cc2c3c(ncn3C)c(Nc3cc(C)n(C)n3)nc21
Outline: as §1

[17] = compound: CCCS(=O)(=O)Nc1ccc(F)c(C(=O)c2c[nH]c3ncc(-c4ccc(Cl)cc4)cc23)c1F [vemurafenib]
Outline: as §1

[18] = compound: CC[C@@H]1C(=O)N(C)c2cnc(Nc3ccc(C(=O)NC4CCN(C)CC4)cc3OC)nc2N1C1CCCC1
Outline: as §1

Measured: log2 fold change

AP3S2 (UniProt P59780)
inactive: [1] -0.026 | [2] -0.022 | [3] -0.1 | [4] -0.028 | [5] 0.032 | [6] -0.041

ANKRD39 (UniProt Q53RE8)
inactive: [3] -0.047 | [7] 0.026 | [8] 0.281 | [9] -0.057 | [10] -0.057 | [11] 0.019 | [12] -0.058

AP2M1 (UniProt C9JPV8)
inactive: [1] 0.067 | [4] -0.032 | [5] -0.267 | [6] -0.05

AP2M1 (UniProt C9JTK4)
inactive: [13] 0.209 | [14] -0.095 | [15] 0.027 | [16] -0.229

ALDH3A2 isoform 2 (UniProt P51648)
inactive: [13] -0.131 | [14] 0.443 | [3] -0.208 | [7] 0.347 | [15] 0.362 | [16] 0.069 | [9] -0.15 | [10] 0.084 | [11] 0.843

ALKBH1 (UniProt Q13686)
inactive: [13] 0.095 | [14] -0.1 | [2] 0.008 | [3] -0.003 | [7] -0.102 | [15] 0.093 | [17] 0.069 | [18] -0.05 | [16] -0.043 | [9] 0.015 | [10] -0.072 | [11] -0.037

AMIGO2 (UniProt Q86SJ2)
inactive: [3] 0.023 | [17] 0.034 | [9] -0.103 | [10] -0.093

ALG14 (UniProt Q96F25)
inactive: [1] -0.064 | [4] 0.102 | [5] 0.077 | [6] -0.053

ANGEL1 (UniProt Q9UNK9)
inactive: [13] 0.132 | [14] -0.297 | [3] -0.001 | [8] 0.011 | [15] -0.056 | [16] -0.45 | [9] -0.365 | [10] -0.001 | [12] -0.119

AMN1 (UniProt Q8IY45)
inactive: [1] -0.019 | [4] 0.116 | [5] -0.007 | [6] -0.105 | [9] -0.105 | [10] 0.003

ALDH18A1 isoform 2 (UniProt P54886)
inactive: [13] -0.308 | [14] -0.245 | [7] -0.378 | [8] 0.03 | [15] 0.19 | [17] 0.308 | [16] 0.043 | [11] 0.13 | [12] 0.121

AP1G1 (UniProt H3BV30)
inactive: [1] -0.26 | [4] -0.429 | [5] -0.131 | [6] 0.091

Two consecutive entries from above, quoted:
ALG14 (UniProt Q96F25)
inactive: [1] -0.064 | [4] 0.102 | [5] 0.077 | [6] -0.053

ANGEL1 (UniProt Q9UNK9)
inactive: [13] 0.132 | [14] -0.297 | [3] -0.001 | [8] 0.011 | [15] -0.056 | [16] -0.45 | [9] -0.365 | [10] -0.001 | [12] -0.119

Remaining list, next part

ALAS2 (UniProt P22557)
inactive: [8] 0.012 | [12] 0.039

AMOT (UniProt Q4VCS5)
inactive: [13] 0.046 | [14] -0.038 | [3] 0.037 | [7] -0.009 | [8] 0.024 | [15] -0.02 | [18] 0.009 | [16] -0.075 | [11] -0.048 | [12] -0.015

ANKIB1 (UniProt Q9P2G1)
inactive: [13] 0.072 | [14] 0.058 | [15] 0.013 | [16] 0.111

ALKBH7 (UniProt Q9BT30)
inactive: [13] 0.116 | [14] 0.09 | [2] -0.085 | [3] 0.256 | [7] -0.012 | [8] 0.077 | [15] 0.019 | [18] -0.031 | [16] 0.072 | [9] 0.233 | [10] -0.2 | [11] -0.012 | [12] -0.016

AMMECR1L (UniProt Q6DCA0)
inactive: [13] -0.009 | [14] 0.102 | [2] 0.08 | [7] -0.008 | [8] 0.14 | [15] 0.085 | [17] -0.011 | [18] 0.01 | [16] -0.076 | [9] -0.034 | [10] 0.125 | [11] -0.091 | [12] -0.054

ALDH1A3 (UniProt P47895)
inactive: [18] -0.002

ALG13 isoform 2 (UniProt Q9NP73)
inactive: [3] 0.03 | [9] 0.016 | [10] -0.098

ANKS6 isoform 4 (UniProt Q68DC2)
inactive: [13] 0.121 | [14] -0.373 | [2] 0.037 | [3] -0.009 | [7] -0.079 | [8] 0.01 | [15] 0.213 | [18] 0.029 | [16] 0.062 | [11] -0.044 | [12] 0.1

Reference: the supplement of paper PMC10849652
